Here are results for one compound from article PMC10747250, “Structure-Based Optimization of 1,2,4-Triazole-3-Thione Derivatives: Improving Inhibition of NDM-/VIM-Type Metallo-β-Lactamases and Synergistic Activity on Resistant Bacteria” (Pharmaceuticals, 2023).

Experiment [1] relates to E. coli MO-287 (NDM-1). Description: Synergy with meropenem, broth microdilution MIC. The class given is cell-based. Particulars: Escherichia coli; MEM alone (Cpd: None). On the procedure: (§1) The potential synergistic activity of the three best inhibitors (CP 35, CP 56, and CP 57) was tested using the broth microdilution method on six MBL-producing multidrug-resistant clinical isolates. […] Although apparently modest, this increase in synergistic activity represents a significant improvement over the previous generation of triazole-thione β-lactamase inhibitors previous described by our group.
Background: In broth dilution the organism is exposed to a series of concentrations in liquid medium.

Experiment [2] relates to E. coli MO-978 (NDM1). The experiment can be described thus: Synergy with meropenem, broth microdilution MIC. Conditions: Escherichia coli; MEM alone (Cpd: None). The class given is cell-based. On the procedure:
as §1

As a reminder, the MIC is the lowest concentration that inhibits growth of the organism. On to `C[C@@H](O)[C@H]1C(=O)N2C(C(=O)O)=C(S[C@@H]3CN[C@H](C(=O)N(C)C)C3)[C@H](C)[C@H]12` [MEM, meropenem, reference compound], for which the MIC in experiment [1] turned out to be 64 µg/mL; in experiment [2], 256 µg/mL.
